The target in test [1] is soluble HLA-B*0702 (human). Nature of the test: fluorescence polarization competition on soluble HLA-B*0702.
The next test concerns the target HLA-A*0201 (human). Nature of the test: fluorescence polarization competition, test peptide at 100 µM. On the technique in general: Polarisation of emitted light reports the rotation of a fluorescent probe.

The values that follow come from US20080089886A1.

Results are given in words; binding and its absence hold for the method and conditions named. A result given as binding can be weak or reduced; the word gives no strength.

Turning to GAFEIEING [C35 peptide G63 to G71], the binding result in test [1] is given as “binds”.

On to EPGQTSVAP [C35 peptide E4 to P12], for which, in test [1], the binding entry is on record as “binds”.

Consider FEIEINGQL [C35 peptide F65 to L73], for which, in the test with HLA-A*0201 (human), the binding result is on record as “binds”.

Turning to SGVRIVVEY [C35 peptide S21 to Y29], in the test with HLA-A*0201 (human), the binding entry was “binds”.

Consider TYLELASAV [C35 peptide T38 to V46], for which the binding entry in the test with HLA-A*0201 (human) is “binds”.

As to GTGAFEIEI [C35 peptide G61 to I69], the binding result with HLA-A*0201 (human) was “binds”.

For the molecule NSRPPAVIL [C35 peptide N107 to L115 (analog with Ala substituted for Cys at 112)], the binding entry in test [1] was “binds”.

For SVAPPPEEV [C35 peptide S9 to V17], the binding entry with HLA-A*0201 (human) is given as “binds”.

In the case of TGAFEIEIN [C35 peptide T62 to N70], the binding entry in test [1] was “binds”.
